The nature of the test: qHTS Assay for Modulators of Lamin A Splicing. The conditions noted are these: HeLa LMNA splicing GFP/RFP minigene ratio, 48 h. The essentials: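 Read-out is the ratio of GFP to DsRed2 object intensity, acquired by 488 nm laser-scanning cytometry on HeLa lamin A-EGFP minigene reporter cells. Compound incubation 48 hrs at 37 °C in Opti-MEM with 2% FBS; DMSO 0.5% final.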
The mark [1] stands for this setting: measured here: GFP splicing reporter channel.
The mark [2] stands for this setting: measured here: RFP viability control channel.

Values joined by “and” are separate entries in the source; they are usually repeats but may differ in a detail not shown here. Identical values can stand only once. This is one part of the list. The main result of the screen is listed elsewhere. These columns were measured beside it and carry no call. Most of these compounds were active or inconclusive in the main read-out, so they are no random draw. The note in brackets gives the kind of curve behind each potency; many fits are weak.

By AC50 is commonly meant the midpoint of the concentration-response curve, whichever way the signal moves. On to `COC(=O)CCC/C=C1/SCC(NC(=O)c2ccccc2)C1O` (stereo unspecified), for which the AC50 under setting [1] is 0.282 µM [rising, full curve, poor fit]. For `Cn1cnnc1SCC(=O)Nc1ccc2nc(SCc3cccc4ccccc34)sc2c1`, the half-maximal activity concentration (AC50) under setting [1] is 17.8 µM [rising, single point].

For `Cc1cc(Br)ccc1NC(=O)CN1C(=O)C2C3CC(c4ccccc4)C(C3)C2C1=O` (stereo unspecified), the AC50 under setting [1] was 35.5 µM [falling, single point] and the half-maximal activity concentration (AC50) under setting [2] is 25.1 µM [falling, single point].

Turning to `Clc1ccccc1CN(Cc1ccccc1)C(c1cccs1)c1nnnn1C1CCCC1` (stereo unspecified), the concentration at half-maximal activity (AC50) is, setting by setting: under setting [1], 14.1 µM [rising, single point]; under setting [2], 31.6 µM [rising, single point]. `O=C(C1CCCN1C(=O)c1cccs1)N1CCc2ccccc21` (stereo unspecified): the AC50 under setting [1] was 0.224 µM [rising, full curve, poor fit]. In the case of `CC1CC(C)CN(S(=O)(=O)c2ccc(C(=O)N(c3ccccn3)C3CCCCC3)cc2)C1` (stereo unspecified), the AC50 under setting [2] is 0.0708 µM [falling, full curve]. The same measure, in the same setting: the value for `CC1(C)CC(=O)C2=C(C1)OC(N)=C(C#N)C2c1cn(-c2ccccc2)nc1-c1ccc(F)cc1` (stereo unspecified) was 7.08 µM [rising, partial curve, poor fit]; that for `CN(C)CCCN1c2ccccc2Sc2ccc(Cl)cc21` was 224 nM [rising, full curve, poor fit] and 15.8 nM [falling, full curve] and 35.5 µM [rising, single point].

With `Cc1cccc(N=N/C(=C\O)C(=O)c2cccs2)c1`, the AC50 is, setting by setting: under setting [1], 11.2 µM [falling, partial curve, poor fit]; under setting [2], 35.5 µM [falling, single point]. For `COc1ccc(NC(=O)c2cc(=O)c3ccccc3o2)cn1`, under setting [2], the AC50 is 11.2 µM [rising, single point]. Still for that read-out and setting: with `COc1ccc(S(=O)(=O)Nc2cc(C(=O)NC(C)C)ccc2N2CCOCC2)cc1` the figure was 15.8 µM [rising, single point]. On the same count and under the same terms, with `COc1cccc2c1OC[C@@H](CO)[C@H]2N(C)C(=O)Nc1ccc(Cl)cc1Cl` the figure was 15.8 µM [falling, partial curve]. Still for that read-out and setting: with `O=C1CCC2CCCCC2(O)O1` (stereo unspecified) the figure was 10 µM [falling, partial curve]. Regarding `COc1ccccc1NS(=O)(=O)c1cccc(NC(=O)Nc2cccc(Cl)c2)c1`, under setting [1], the AC50 was 22.4 µM [falling, single point]. With `O=C1c2ccccc2S(=O)(=O)N1CC(O)COc1ccc(Cl)cc1` (stereo unspecified), under setting [2], the AC50 is 11.2 µM [rising, partial curve]. With `Cc1nn(CC2CC2)c(=O)n1-c1ccc(F)cc1`, the AC50 under setting [1] is 0.00398 µM [rising, full curve, poor fit]. As to `Clc1ccc(Cl)c2sc(N3CCCC3)nc12`, under setting [2], the half-maximal activity concentration (AC50) is 14.1 µM [falling, partial curve, poor fit].

In the case of `CCOC(=O)C1=C(C)NC(=O)CC1c1cc(OC)c(OC)cc1Br` (stereo unspecified), the AC50 under setting [1] was 0.00282 µM [rising, full curve, poor fit]. Turning to `CCOc1ccc(S(=O)(=O)N2CCN(C(=O)c3sccc3C)CC2)cc1`, the AC50 under setting [2] is 15.8 µM [rising, single point]. In the case of `OCCn1c(-c2ccc(F)cc2)csc1=Nc1ccccc1`, the AC50 is 11.2 µM [rising, partial curve, poor fit] under setting [1] and 25.1 µM [rising, partial curve] under setting [2]. As to `Oc1c(Br)cc(Br)cc1/C=N/NC(=S)N[C@H]1CC2C=CC1C2` (stereo partly specified), the AC50 by setting is: under setting [1], 20 µM [falling, partial curve, poor fit]; under setting [2], 0.631 µM [falling, full curve]. Regarding `Cc1cccc(C)c1OCC(=O)Nc1cccc(NC(=O)c2ccco2)c1`, under setting [2], the AC50 is 5.01 µM [rising, partial curve, poor fit]. The same measure, in the same setting: with `CCOc1ccccc1N(CC(=O)Nc1ccc2c(c1)OCCO2)S(C)(=O)=O` the figure was 7.08 µM [rising, full curve, poor fit]. For `CCCCC[C@H](O)/C=C\[C@@H]1[C@H](O)CC(=O)[C@@H]1CCCCCCC(=O)O`, the half-maximal activity concentration (AC50) reads like this: under setting [1], 0.00316 µM [falling, full curve]; under setting [2], 0.00631 µM [falling, full curve, poor fit]. On to `O=C(N/N=C/c1ccc(Cl)cc1)c1sccc1OCc1ccc(F)cc1`, for which the AC50 under setting [2] was 1.78 µM [rising, partial curve]. Still for that read-out and setting: the value for `Cc1c(NC(=O)Nc2ccccc2)cccc1[N+](=O)[O-]` was 11.2 µM [rising, partial curve, poor fit].

Take `CCc1c(C)sc(NC(=S)NC(C)C2CCCO2)c1C(=O)OC` (stereo unspecified): the half-maximal activity concentration (AC50) under setting [1] was 31.6 µM [rising, single point] and the AC50 under setting [2] was 20 µM [rising, single point]. Regarding `Cc1ccc(-c2noc(CCC(=O)NCCCN3CCN(c4cccc(Cl)c4)CC3)n2)cc1`, the AC50 under setting [2] was 35.5 µM [rising, single point]. As to `N#CCCn1cc(/C=N/NC(N)=S)c(-c2ccc(-c3ccccc3)cc2)n1`, the AC50 under setting [2] was 20 µM [falling, single point]. On to `COc1ccc(C(=O)Nc2cccc3cccnc23)cc1OC`, for which the AC50 runs as follows: under setting [1], 35.5 µM [falling, single point]; under setting [2], 17.8 µM [falling, single point]. In the case of `COc1ccc(Cn2nnnc2CN(CCCN2CCOCC2)Cc2cc3cc(OC)ccc3[nH]c2=O)cc1`, the AC50 by setting is: under setting [1], 5.01 µM [falling, single point]; under setting [2], 5.62 µM [falling, single point]. As to `COc1ccc(NC(=O)COC(=O)CC23CC4CC(CC(C4)C2)C3)c([N+](=O)[O-])c1`, under setting [2], the AC50 was 14.1 µM [rising, partial curve, poor fit]. Turning to `COc1cc(C(=O)Oc2ccccc2/C=N/NC(=O)c2ccc(C)cc2)cc(OC)c1OC`, the AC50 is, setting by setting: under setting [1], 0.0178 µM [falling, single point]; under setting [2], 0.0316 µM [falling, partial curve].

On to `Oc1ccc2cc(Br)ccc2c1CN1CCCC1`, for which the AC50 under setting [1] is 0.0891 µM [falling, full curve, poor fit]. With `C=C(Cl)COc1ccc2c(CC)cc(=O)oc2c1`, under setting [2], the AC50 was 0.178 µM [rising, full curve]. In the case of `CC1=CC(C)(C)n2c(O)c(N=NC(N)=S)c3cccc1c32`, under setting [2], the half-maximal activity concentration (AC50) was 1.58 µM [rising, full curve, poor fit].

The record behind these values is PubChem BioAssay AID1487 (National Center for Advancing Translational Sciences (NCATS), 2009).
